Source: patent publication US20120178908A1 (Novo Nordisk, published 2012)
Results are given in words; binding and its absence hold for the method and conditions named. Some results given as binding are weak or reduced against the parent protein; the word gives no strength.

The chains behind the UniProt entries cited, without tags or fusion partners. Where a name states a change or a piece, a line headed by the entry shows the natural chain unless it says otherwise.
UniProt P02671: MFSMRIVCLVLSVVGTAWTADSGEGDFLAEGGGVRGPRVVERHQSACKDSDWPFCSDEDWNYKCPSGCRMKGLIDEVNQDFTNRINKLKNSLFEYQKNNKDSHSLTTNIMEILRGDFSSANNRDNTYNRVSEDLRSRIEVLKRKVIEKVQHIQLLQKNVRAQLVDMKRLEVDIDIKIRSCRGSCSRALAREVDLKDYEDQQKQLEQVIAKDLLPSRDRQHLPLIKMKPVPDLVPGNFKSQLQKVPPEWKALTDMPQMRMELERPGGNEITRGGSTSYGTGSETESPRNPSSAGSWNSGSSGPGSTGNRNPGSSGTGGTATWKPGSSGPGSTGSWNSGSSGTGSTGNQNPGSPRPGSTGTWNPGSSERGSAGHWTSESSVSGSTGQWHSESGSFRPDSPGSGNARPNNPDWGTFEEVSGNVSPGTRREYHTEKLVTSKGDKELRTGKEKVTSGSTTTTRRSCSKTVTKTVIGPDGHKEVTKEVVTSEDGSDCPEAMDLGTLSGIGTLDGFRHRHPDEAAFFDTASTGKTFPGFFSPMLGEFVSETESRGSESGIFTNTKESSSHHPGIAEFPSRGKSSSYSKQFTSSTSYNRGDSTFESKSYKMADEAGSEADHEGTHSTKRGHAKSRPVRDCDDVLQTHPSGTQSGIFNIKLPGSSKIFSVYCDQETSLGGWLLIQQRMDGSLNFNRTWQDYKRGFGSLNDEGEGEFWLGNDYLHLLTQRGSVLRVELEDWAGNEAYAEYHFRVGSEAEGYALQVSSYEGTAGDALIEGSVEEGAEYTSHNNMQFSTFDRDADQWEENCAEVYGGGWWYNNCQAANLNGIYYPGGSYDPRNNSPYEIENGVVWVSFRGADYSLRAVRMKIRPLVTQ

Target: T1, TLT1 (human TLT-1, reagent of the SPR studies, source NN) (human) (UniProt Q86YW5)
T1 sequence: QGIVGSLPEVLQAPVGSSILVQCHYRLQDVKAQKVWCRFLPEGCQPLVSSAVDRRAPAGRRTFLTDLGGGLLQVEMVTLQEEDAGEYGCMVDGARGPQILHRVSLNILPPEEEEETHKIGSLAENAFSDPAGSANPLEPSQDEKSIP
Assay: SPR (Biacore T100)

human fibrinogen (HCI-0150R, Haematologic Technologies) (from UniProt P02671 20-629; P02675 31-491; P02679 27-437) (ligand)
binding: binds
